No constants are given. Whether binding was seen depends on the method and setting.
Target: bacteriophage T5 D10 helicase (D10 gene product) (bacteriophage T5) (UniProt P11107)
Experiment: SEC; Superdex 75, final purification column; 20 mM Tris-HCl pH 7.5, 0.3 M NaCl, 1 mM EDTA, 1 mM PMSF, 5 mM DTT, 10% v/v glycerol; 4 °C; both purified

B1: bacteriophage T5 D10 helicase (D10 gene product) (enzyme, UniProt P11107 1-450)
chain: MKVVISNKAYFKPDDELWDYCSKQTTYHIETMTSKYPIMYKNSGVVAKEIKWIPITRLDLLDAKGIKYELVDKRTLAPVDIPKPKFKLREEDQLPIYEECDDTCIINGKPGFGKTILALALAYKFGQKTLVICTNTSIREMWAAEVRKWFGFEPGIIGSGKYNIDPPIVVSNIQTVNKHANNLSKVFGTVIVDEVHHCVATTFTNFLEISCARYKIGLSGTLKRKDGLQVMFKDFFGYKIFSPPVNNTVAPTIHRYSVPVELSGNQNVPWALRANDVYNHPEYRETIINLAHLYVNMGHKVLIVSDRTELIQTILEALTQRGVTTYEIIGATHLDDRLKIQEDIAKGGPCVLAAAQSIFSEGISLNELSCLIMGSLINNESLIEQLAGRVQRIVEGKLDPIVVDLIMKGGTGLRQASGRMAVYRNNGWKTITMTPEKAVQLAKIAFGNSS
For B1, the binding was “no binding”.
